Results taken from patent US10722496B2, “2-iminobiotin for use in the treatment of brain cell injury” (Neurophyxia B.V., priority 2015, dated 2020).

Test: Bodyweight and blood glucose in 4VO study
Format: in vivo, rat
Details: 1.1-30 mg/kg/dose s.c., all groups

Compound: N=C1N[C@H]2[C@H](CS[C@H]2CCCCC(=O)O)N1 [2-IB, 2-iminobiotin]
- blood glucose values: no significant differences between blood glucose values were found
- bodyweight over time: no significant difference between treatment groups
